Measurements: paper PMC7863998
Results are given in words; binding and its absence hold for the method and conditions named. In cells and extracts the contact can be indirect. Some binding calls cover weakened binding; strength is not graded here. For some assays here: Where a sequence is shown, tags or fusion partners need not be part of it. Each block holds one molecule with its values, some of them ahead of it.

Amino acid sequences for entries named in this document (tags omitted).
UniProt Q3TKT4: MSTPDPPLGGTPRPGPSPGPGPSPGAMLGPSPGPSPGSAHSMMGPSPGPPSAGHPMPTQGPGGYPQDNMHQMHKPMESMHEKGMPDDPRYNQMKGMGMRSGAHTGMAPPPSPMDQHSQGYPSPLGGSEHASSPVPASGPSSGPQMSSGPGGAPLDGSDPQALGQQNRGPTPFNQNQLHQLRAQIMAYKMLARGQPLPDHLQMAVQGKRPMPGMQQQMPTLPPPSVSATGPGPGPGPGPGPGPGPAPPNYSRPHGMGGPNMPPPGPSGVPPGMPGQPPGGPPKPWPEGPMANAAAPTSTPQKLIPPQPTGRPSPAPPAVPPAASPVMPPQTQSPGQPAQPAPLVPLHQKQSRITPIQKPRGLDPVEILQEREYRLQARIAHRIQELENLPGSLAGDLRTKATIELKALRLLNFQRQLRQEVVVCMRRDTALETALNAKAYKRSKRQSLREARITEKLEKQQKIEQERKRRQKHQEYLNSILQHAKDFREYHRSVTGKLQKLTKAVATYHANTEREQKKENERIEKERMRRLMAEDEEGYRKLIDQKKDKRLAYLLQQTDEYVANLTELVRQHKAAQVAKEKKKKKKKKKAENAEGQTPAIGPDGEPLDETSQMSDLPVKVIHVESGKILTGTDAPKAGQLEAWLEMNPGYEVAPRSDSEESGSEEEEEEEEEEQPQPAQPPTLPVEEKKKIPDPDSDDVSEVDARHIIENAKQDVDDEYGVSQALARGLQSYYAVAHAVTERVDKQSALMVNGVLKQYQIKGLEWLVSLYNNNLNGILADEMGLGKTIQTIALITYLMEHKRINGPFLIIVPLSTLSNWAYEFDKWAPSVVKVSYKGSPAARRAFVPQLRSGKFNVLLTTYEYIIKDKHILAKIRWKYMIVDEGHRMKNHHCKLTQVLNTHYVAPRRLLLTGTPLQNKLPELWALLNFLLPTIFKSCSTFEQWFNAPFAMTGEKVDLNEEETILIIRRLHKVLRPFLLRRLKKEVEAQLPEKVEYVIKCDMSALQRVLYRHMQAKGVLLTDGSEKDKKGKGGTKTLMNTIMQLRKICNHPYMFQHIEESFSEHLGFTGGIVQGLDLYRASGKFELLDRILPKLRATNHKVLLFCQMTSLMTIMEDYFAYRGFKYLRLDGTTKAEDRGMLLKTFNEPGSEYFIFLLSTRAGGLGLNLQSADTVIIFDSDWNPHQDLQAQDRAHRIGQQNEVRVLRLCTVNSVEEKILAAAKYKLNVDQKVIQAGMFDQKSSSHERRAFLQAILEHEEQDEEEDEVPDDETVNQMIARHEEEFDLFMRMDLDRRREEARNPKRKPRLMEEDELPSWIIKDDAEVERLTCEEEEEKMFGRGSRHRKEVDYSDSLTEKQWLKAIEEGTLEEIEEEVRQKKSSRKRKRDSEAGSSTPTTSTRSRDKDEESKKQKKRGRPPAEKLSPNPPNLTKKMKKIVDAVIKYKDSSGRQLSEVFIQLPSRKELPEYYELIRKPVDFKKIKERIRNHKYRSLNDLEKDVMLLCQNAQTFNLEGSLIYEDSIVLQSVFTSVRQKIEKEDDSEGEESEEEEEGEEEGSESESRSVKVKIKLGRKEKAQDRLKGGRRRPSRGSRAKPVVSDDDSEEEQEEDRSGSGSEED
UniProt P51532: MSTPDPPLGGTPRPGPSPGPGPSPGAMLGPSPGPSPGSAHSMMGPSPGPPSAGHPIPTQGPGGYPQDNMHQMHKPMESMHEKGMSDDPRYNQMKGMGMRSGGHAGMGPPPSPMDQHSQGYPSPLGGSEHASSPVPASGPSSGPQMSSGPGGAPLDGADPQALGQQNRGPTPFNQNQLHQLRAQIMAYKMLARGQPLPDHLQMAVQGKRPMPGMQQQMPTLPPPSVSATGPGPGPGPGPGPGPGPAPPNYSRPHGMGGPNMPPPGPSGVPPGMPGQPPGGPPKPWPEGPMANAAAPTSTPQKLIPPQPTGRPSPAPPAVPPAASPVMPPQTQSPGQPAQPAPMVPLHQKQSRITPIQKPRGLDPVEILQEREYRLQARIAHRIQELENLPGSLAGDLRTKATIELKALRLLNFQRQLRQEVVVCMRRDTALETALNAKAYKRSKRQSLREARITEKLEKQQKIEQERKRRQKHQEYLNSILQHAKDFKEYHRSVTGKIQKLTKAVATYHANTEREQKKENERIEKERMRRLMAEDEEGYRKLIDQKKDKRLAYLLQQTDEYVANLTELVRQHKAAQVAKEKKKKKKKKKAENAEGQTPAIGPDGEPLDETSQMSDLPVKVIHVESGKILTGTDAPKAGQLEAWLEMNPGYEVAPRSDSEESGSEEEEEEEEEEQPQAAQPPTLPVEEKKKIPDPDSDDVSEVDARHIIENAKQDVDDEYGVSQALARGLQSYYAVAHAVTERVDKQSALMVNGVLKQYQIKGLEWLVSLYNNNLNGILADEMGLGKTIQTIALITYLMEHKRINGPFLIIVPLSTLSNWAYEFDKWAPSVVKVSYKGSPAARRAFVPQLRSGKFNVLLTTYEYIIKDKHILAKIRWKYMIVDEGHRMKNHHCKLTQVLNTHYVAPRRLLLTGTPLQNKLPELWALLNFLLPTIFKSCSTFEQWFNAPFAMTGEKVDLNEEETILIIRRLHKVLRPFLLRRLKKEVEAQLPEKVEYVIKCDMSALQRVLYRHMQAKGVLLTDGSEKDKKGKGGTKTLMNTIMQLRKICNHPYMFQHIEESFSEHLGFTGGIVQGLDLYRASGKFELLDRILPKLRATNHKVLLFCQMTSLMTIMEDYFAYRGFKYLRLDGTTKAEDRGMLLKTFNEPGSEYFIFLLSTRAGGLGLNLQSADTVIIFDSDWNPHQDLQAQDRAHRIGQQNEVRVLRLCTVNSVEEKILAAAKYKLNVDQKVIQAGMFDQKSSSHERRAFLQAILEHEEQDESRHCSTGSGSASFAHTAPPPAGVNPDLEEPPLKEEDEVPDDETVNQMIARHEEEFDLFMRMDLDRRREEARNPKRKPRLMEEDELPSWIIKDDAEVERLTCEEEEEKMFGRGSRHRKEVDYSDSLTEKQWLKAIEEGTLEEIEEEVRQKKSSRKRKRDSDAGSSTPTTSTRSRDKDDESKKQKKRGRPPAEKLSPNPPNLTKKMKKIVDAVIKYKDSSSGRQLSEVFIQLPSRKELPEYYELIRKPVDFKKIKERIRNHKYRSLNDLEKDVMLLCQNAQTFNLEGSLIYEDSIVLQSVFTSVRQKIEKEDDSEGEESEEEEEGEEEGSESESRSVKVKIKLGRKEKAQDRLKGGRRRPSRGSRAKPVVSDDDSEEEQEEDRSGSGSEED
UniProt Q8CG47: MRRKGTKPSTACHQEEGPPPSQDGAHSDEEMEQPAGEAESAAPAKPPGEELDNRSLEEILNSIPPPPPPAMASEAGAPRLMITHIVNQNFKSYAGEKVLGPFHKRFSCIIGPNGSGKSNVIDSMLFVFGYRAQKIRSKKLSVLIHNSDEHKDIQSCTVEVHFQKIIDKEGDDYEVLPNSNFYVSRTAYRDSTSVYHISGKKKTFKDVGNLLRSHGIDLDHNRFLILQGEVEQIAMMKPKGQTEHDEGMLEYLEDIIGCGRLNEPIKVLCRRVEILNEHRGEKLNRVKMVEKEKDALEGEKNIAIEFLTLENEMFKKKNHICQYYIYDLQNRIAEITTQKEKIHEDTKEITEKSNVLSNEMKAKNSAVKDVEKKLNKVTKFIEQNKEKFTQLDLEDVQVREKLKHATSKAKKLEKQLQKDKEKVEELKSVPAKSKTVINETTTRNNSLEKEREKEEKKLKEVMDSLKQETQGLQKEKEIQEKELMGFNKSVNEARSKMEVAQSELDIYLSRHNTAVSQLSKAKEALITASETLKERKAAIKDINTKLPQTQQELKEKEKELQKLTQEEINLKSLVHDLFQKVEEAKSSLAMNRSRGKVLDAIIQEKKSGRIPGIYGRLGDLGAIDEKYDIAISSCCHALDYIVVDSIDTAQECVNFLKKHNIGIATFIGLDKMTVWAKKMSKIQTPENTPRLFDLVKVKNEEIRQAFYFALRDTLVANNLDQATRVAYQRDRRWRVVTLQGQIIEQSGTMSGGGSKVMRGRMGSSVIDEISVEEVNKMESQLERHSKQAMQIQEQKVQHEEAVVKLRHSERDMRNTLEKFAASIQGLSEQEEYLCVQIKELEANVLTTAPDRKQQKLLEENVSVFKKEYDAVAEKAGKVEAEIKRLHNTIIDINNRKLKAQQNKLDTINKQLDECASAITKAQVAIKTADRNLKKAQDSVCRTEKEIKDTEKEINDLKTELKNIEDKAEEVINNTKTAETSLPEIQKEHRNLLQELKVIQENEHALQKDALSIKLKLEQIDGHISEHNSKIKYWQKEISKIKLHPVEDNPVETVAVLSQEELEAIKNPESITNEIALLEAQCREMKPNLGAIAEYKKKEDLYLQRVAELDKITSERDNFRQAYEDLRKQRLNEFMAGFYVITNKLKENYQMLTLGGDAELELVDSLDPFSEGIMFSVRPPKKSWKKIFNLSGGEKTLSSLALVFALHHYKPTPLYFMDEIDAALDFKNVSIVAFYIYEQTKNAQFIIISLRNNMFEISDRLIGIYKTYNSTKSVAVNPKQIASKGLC

What was measured:
[1] = target: T1, C-terminally tagged NCAPH2 (NCAPH2-AID-mCherry) (human) (UniProt Q6IBW4); assay: co-IP; immunoprecipitation with a custom anti-NCAPH2 antibody from whole cell extract of HCT-116 NCAPH2-AID-mCherry cells, with or without 5 hour treatment with 500µM auxin; immunoblot
T1 sequence: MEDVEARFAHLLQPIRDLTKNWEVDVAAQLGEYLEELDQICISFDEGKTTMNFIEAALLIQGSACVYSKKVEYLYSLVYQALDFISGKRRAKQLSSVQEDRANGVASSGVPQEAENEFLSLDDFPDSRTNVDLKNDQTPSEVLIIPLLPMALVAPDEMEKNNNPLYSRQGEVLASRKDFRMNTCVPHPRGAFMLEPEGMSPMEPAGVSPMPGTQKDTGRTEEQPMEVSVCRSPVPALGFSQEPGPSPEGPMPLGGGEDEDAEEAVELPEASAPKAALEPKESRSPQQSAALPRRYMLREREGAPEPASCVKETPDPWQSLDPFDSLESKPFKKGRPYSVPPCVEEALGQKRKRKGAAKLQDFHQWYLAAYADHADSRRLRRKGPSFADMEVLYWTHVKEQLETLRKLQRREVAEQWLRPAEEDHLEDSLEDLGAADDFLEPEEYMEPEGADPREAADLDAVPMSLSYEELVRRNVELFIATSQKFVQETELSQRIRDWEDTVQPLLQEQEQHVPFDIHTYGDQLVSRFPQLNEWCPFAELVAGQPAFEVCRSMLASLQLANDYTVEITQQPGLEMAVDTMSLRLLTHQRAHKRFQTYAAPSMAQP

[2] = target: SWI/SNF subunit Smarca4 (mouse thymus) (mouse (endogenous in thymus)) (UniProt Q3TKT4); assay: co-IP; immunoprecipitation with B276 or anti-Smarca4 versus IgG from mouse thymic whole cell extract (1% triton buffer), 4°C overnight; immunoblot
[3] = target: T2, Ncaph2 (mouse thymus) (mouse (endogenous in thymus)) (UniProt Q8BSP2); assay: as above
T2 sequence: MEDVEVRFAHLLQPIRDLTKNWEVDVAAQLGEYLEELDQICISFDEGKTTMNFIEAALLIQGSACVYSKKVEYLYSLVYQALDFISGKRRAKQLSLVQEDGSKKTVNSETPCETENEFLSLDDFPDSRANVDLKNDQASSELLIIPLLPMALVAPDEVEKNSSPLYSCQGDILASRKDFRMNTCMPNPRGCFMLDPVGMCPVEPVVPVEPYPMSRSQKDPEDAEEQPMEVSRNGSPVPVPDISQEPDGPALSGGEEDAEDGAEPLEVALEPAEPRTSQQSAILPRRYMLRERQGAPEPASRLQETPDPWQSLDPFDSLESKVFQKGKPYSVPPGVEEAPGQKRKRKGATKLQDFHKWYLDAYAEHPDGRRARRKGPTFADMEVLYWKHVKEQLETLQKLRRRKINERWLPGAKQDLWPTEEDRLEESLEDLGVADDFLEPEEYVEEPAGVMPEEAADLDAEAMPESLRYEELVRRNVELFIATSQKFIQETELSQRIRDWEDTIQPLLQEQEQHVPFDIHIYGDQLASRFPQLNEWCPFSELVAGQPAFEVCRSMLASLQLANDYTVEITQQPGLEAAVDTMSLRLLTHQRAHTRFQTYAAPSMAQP

Molecule: SMARCA4 subunit of SWI/SNF (HCT-116) (from UniProt P51532 1-1647)
- binding [1]: no binding

Molecule: SWI/SNF subunit Smarca4 (mouse thymus) (from UniProt Q3TKT4 1-1613)
- binding [3]: no binding

Molecule: Smc4 subunit of condensin (mouse thymus) (from UniProt Q8CG47 1-1286)
- binding [3]: binds

Further lines, results first:

- binding [2]: binds
Molecule: SWI/SNF component Arid1a (mouse thymus) (from UniProt A2BH40 1-2283)

- binding [2]: no binding
B1: Ncaph2 (mouse thymus) (protein, UniProt Q8BSP2 1-607)
chain: T2 sequence
